Experimental data: PubChem BioAssay AID1224826 (NIAID, 2016)
The whole screen tested about 17,000 reagents; this is an unselected part. Of all reagents, about 1,110 (6.6%) were called active. 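Active means lowered or raised reporter signal; replicate intensities are raw and not normalised per plate.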 The numbers tell different reagents against one gene apart.

- Screen: 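Regulators of Tlr4 signalling leading to Tnf-alpha expression in macrophages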 (primary screen)
- System: RAW264.7 G9 macrophages from mouse bearing reporters for p65 (GFP) and the Tnf promoter (mCherry)
- Knock-down reagent: siRNA pool against mouse genes, 100 nM
- Duration: 16 h of LPS stimulation, after 2 days of siRNA transfection
- Treatment: bacterial lipopolysaccharide (Salmonella minnesota R595), 10 ng/ml
- Read-out: 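Nuclear mCherry signal of the Tnf promoter reporter measured by imaging after background removal, scaled to each plate median and turned into robust z-scores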
- Reading the numbers: Tnf reporter robust z-score: higher = stronger Tnf promoter reporter signal after LPS; Tnf reporter intensity: higher = stronger Tnf promoter reporter signal
- Call rule: 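Called active when robust z-score is at most -1.3, matching the median of the Tlr4 knock-down control, or over 3; control wells and wells with under 50 cells never active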
- Meaning of the calls: active = Tnf reporter clearly lowered or raised; inactive = no clear change in Tnf reporter

gene	pool no.	Tnf reporter robust z-score	fewer than 50 cells in well	Tnf reporter intensity, replicate 1	Tnf reporter intensity, replicate 2	activity call
Relch (GeneID 227446)	1		fewer than 50 cells per well; well left out of calls	166	61.2	inactive
Ifitm10 (GeneID 320802)	1	0.02	enough cells in well	178	148	inactive
Snai3 (GeneID 30927)	1		fewer than 50 cells per well; well left out of calls	89.6	115	inactive
Fam117a (GeneID 215512)	1	0.28	enough cells in well	224	132	inactive
Gpn3 (GeneID 68080)	1	0.45	enough cells in well	186	168	inactive
Sft2d2 (GeneID 108735)	1		fewer than 50 cells per well; well left out of calls	38.7	14.8	inactive
Aida (GeneID 108909)	1		fewer than 50 cells per well; well left out of calls	150	61.1	inactive
Or7a40 (GeneID 18316)	1	-0.04	enough cells in well	312	74.8	inactive
B4galt5 (GeneID 56336)	1	-1.24	enough cells in well	90.4	155	inactive
Nub1 (GeneID 53312)	1	-0.69	enough cells in well	132	116	inactive
Sumo3 (GeneID 20610)	1	1.61	enough cells in well	159	149	inactive
4930470P17Rik (GeneID 67637)	1	-0.4	enough cells in well	166	62.4	inactive
Necab3 (GeneID 56846)	1	1.66	enough cells in well	253	270	inactive
A030005L19Rik (GeneID 77922)	1	-0.1	enough cells in well	179	133	inactive
Clasp2 (GeneID 76499)	1	-0.87	enough cells in well	195	127	inactive
Pom121 (GeneID 107939)	1	-0.37	enough cells in well	125	102	inactive
Epn1 (GeneID 13854)	1	-1.02	enough cells in well	190	70.8	inactive
Lats2 (GeneID 50523)	1	0.49	enough cells in well	225	191	inactive
Smc4 (GeneID 70099)	1	1.51	enough cells in well	432	316	inactive
Gnaz (GeneID 14687)	1	-0.76	enough cells in well	155	227	inactive
Or4a71 (GeneID 258971)	1	0.27	enough cells in well	243	99.6	inactive
Shisa5 (GeneID 66940)	1	0.93	enough cells in well	173	126	inactive
Klra1 (GeneID 16627)	1	-0.73	enough cells in well	187	108	inactive
Csnk2a2 (GeneID 13000)	1	0.5	enough cells in well	274	146	inactive
Mapkapk5 (GeneID 17165)	1	-0.58	enough cells in well	156	101	inactive
Islr2 (GeneID 320563)	1	1.05	enough cells in well	268	294	inactive
Drap1 (GeneID 66556)	1	-0.6	enough cells in well	144	206	inactive
Arl2bp (GeneID 107566)	1	-0.55	enough cells in well	175	99.6	inactive
Ppp3cb (GeneID 19056)	1	0.15	enough cells in well	256	204	inactive

Laid out differently: results already given.
gene | pool no. | Tnf reporter robust z-score | fewer than 50 cells in well | Tnf reporter intensity, replicate 1 | Tnf reporter intensity, replicate 2 | activity call
Aida (GeneID 108909) | 1 | – | fewer than 50 cells per well; well left out of calls | 150 | 61.1 | inactive
Or7a40 (GeneID 18316) | 1 | -0.04 | enough cells in well | 312 | 74.8 | inactive
B4galt5 (GeneID 56336) | 1 | -1.24 | enough cells in well | 90.4 | 155 | inactive
Nub1 (GeneID 53312) | 1 | -0.69 | enough cells in well | 132 | 116 | inactive
Sumo3 (GeneID 20610) | 1 | 1.61 | enough cells in well | 159 | 149 | inactive

Additional records follow:
gene	pool no.	Tnf reporter robust z-score	fewer than 50 cells in well	Tnf reporter intensity, replicate 1	Tnf reporter intensity, replicate 2	activity call
Pi16 (GeneID 74116)	1	2.06	enough cells in well	336	153	inactive
Or5w8 (GeneID 258631)	1	-1.02	enough cells in well	116	104	inactive
Mrpl58 (GeneID 68572)	1	1.34	enough cells in well	324	293	inactive
Vmn1r84 (GeneID 171267)	1	-0.1	enough cells in well	125	78.5	inactive
Flrt1 (GeneID 396184)	1	0.3	enough cells in well	259	106	inactive
Tbc1d10b (GeneID 68449)	1	0.99	enough cells in well	332	108	inactive
Dpf3 (GeneID 70127)	1	-0.75	enough cells in well	145	82.7	inactive
Nipa2 (GeneID 93790)	1	2.32	enough cells in well	297	125	inactive
Dctn6 (GeneID 22428)	1	0.52	enough cells in well	225	187	inactive
Dhx29 (GeneID 218629)	1	-0.7	enough cells in well	193	82.9	inactive
Crip3 (GeneID 114570)	1	-0.75	enough cells in well	177	90.8	inactive
Plb1 (GeneID 665270)	1	0.12	enough cells in well	200	233	inactive
Krt13 (GeneID 16663)	1	-0.68	enough cells in well	206	101	inactive
Dctn5 (GeneID 59288)	1	-1.25	enough cells in well	98.9	84	inactive
Rag1 (GeneID 19373)	1	-1.26	enough cells in well	198	104	inactive
F8a (GeneID 14070)	1	1.43	enough cells in well	160	340	inactive
Lrrc66 (GeneID 231296)	1	-0.73	enough cells in well	169	141	inactive
Jdp2 (GeneID 81703)	1	-0.01	enough cells in well	203	122	inactive
Tbx19 (GeneID 83993)	1	-0.51	enough cells in well	162	130	inactive
Or4a69 (GeneID 258447)	1	0.63	enough cells in well	222	168	inactive
Il2rb (GeneID 16185)	1	-0.06	enough cells in well	223	155	inactive
Cstad (GeneID 78617)	1	-0.03	enough cells in well	190	175	inactive
Ap2s1 (GeneID 232910)	1	0.52	enough cells in well	233	230	inactive
Vti1a (GeneID 53611)	1	2.98	enough cells in well	222	192	inactive
Vti1a (GeneID 53611)	2		fewer than 50 cells per well; well left out of calls	168	62.2	inactive
BC051019 (GeneID 57355)	1	-0.84	enough cells in well	136	95.7	inactive
Clec12a (GeneID 232413)	1	-1.12	enough cells in well	134	87.1	inactive
Fgf15 (GeneID 14170)	1	0.48	enough cells in well	298	274	inactive
Sftpb (GeneID 20388)	1	-0.57	enough cells in well	196	198	inactive
